Source: publication PMC6041267
No constants are given. Whether binding was seen depends on the method and setting. In cells and extracts the contact can be indirect. Some results given as binding are weak or reduced against the parent protein; the word gives no strength.

Chains of the proteins cited; added tags and fusions are not shown.
UniProt Q13418: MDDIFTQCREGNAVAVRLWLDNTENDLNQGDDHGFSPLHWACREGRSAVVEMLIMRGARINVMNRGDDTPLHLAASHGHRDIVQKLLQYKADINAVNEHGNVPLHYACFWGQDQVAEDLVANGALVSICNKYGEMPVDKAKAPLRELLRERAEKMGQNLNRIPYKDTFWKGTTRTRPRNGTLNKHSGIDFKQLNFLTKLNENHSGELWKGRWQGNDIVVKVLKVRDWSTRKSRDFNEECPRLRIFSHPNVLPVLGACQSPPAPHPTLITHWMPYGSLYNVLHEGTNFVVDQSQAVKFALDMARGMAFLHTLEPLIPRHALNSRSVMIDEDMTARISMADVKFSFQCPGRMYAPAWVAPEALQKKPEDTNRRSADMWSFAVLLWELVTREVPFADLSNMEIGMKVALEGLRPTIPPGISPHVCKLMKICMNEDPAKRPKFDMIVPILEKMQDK
UniProt Q8IXI2: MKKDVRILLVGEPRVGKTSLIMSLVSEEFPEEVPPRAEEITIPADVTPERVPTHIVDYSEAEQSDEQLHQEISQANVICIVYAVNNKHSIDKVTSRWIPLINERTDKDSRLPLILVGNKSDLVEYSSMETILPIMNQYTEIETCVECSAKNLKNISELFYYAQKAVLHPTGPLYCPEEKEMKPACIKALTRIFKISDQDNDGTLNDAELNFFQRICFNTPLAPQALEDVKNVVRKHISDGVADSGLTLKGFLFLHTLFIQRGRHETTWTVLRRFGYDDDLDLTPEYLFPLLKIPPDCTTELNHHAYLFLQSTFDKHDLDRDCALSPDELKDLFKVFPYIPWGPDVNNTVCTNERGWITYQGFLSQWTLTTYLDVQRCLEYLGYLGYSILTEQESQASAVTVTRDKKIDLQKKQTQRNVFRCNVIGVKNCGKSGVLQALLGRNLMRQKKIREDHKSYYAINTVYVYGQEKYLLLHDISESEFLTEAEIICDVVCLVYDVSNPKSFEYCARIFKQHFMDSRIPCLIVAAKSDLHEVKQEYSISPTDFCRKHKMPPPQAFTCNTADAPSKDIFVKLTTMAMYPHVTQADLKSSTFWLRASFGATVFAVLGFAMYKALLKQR

Assays:
[1] = target: ILK (endogenous, MDA-MB-231) (human (endogenous in MDA-MB-231)) (UniProt Q13418); test: co-IP; MDA-MB-231 cell lysates (500 ug) with anti-ILK rabbit mAb or nonimmune rabbit IgG and protein A sepharose, 4 °C, 4 h; NP-40 buffer; blot of ILK and RhoT1; also in cells transfected with siRNAs (AMAP1, Arf6, ILK)
[2] = target: mEmerald-tagged ILK (human) (UniProt Q13418); test: proximity ligation; MDA-MB-231 cells stably expressing mEmerald-ILK (doxycycline-induced) and V5-RhoT1, fixed; anti-ILK mouse mAb and anti-V5 rabbit mAb; Duolink In Situ PLA
[3] = target: full length ILK fused to GST (ILK-FL) (human) (UniProt Q13418); test: pull-down; GST-fusion proteins (5 ug each) on Glutathione Sepharose 4B beads incubated with lysate (500 ug) of 293T cells expressing V5-RhoT1, 4 °C, 2 h; washed 4 times with NP-40 buffer; western blot; only the target purified

“RhoT1 (endogenous, MDA-MB-231) (from UniProt Q8IXI2 1-618)” was tested, and the binding [1] was “binds”.

In the case of “V5-RhoT1 (stably expressed in MDA-MB-231 cells) (from UniProt Q8IXI2 1-618)”, the binding [2] is reported as “binds”.

With “V5-tagged RhoT1 (overexpressed in 293T cells) (from UniProt Q8IXI2 1-618)” the binding [3] was “binds”.
